Taken from: PubChem BioAssay AID1224826 (NIAID, 2016)
The deposit covers about 17,000 reagents; below is a random part of them. About 1,110 of all reagents (6.6%) were called active. 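Active means lowered or raised reporter signal; replicate intensities are raw and not normalised per plate.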 Entries without a mark were called inactive. Not all columns of the deposit are shown.

- Purpose: 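Knock-downs that raise or lower Tnf reporter signal after endotoxin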 (primary screen)
- Cells: RAW264.7 G9 macrophages from mouse bearing reporters for p65 (GFP) and the Tnf promoter (mCherry)
- Reagents: siRNA pool against mouse genes, 100 nM
- Time to read-out: 16 h of LPS stimulation, after 2 days of siRNA transfection
- Challenge: bacterial lipopolysaccharide (Salmonella minnesota R595), 10 ng/ml
- Measured: 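Nuclear mCherry signal of the Tnf promoter reporter measured by imaging after background removal, scaled to each plate median and turned into robust z-scores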
- Scale: Tnf reporter robust z-score: higher = stronger Tnf promoter reporter signal after LPS
- Hit rule: 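a well counts as active at a score of -1.3 or below (Tlr4 knock-down control median) or above 3 (raised signal); controls and wells holding fewer than 50 cells are excluded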
- Calls: active = Tnf reporter clearly lowered or raised; inactive = no clear change in Tnf reporter

{"target":"Itm2b (integral membrane protein 2B)","Tnf reporter robust z-score":0.31,"fewer than 50 cells in well":"enough cells in well"}
{"target":"D030022P06RIK","Tnf reporter robust z-score":-0.3,"fewer than 50 cells in well":"enough cells in well"}
{"target":"Amz2 (archaelysin family metallopeptidase 2)","Tnf reporter robust z-score":-0.11,"fewer than 50 cells in well":"enough cells in well"}
{"target":"Vegfa (vascular endothelial growth factor A)","Tnf reporter robust z-score":0.18,"fewer than 50 cells in well":"enough cells in well"}
{"target":"Sar1a (secretion associated Ras related GTPase 1A)","Tnf reporter robust z-score":-0.25,"fewer than 50 cells in well":"enough cells in well"}
{"target":"Atp7a (ATPase, copper transporting, alpha polypeptide)","Tnf reporter robust z-score":0,"fewer than 50 cells in well":"enough cells in well"}
{"target":"Dnajc12 (DnaJ heat shock protein family (Hsp40) member C12)","Tnf reporter robust z-score":"5.31 (active)","fewer than 50 cells in well":"enough cells in well"}
{"target":"Vps37d (vacuolar protein sorting 37D)","Tnf reporter robust z-score":2.51,"fewer than 50 cells in well":"enough cells in well"}
{"target":"Serac1 (serine active site containing 1)","Tnf reporter robust z-score":0.2,"fewer than 50 cells in well":"enough cells in well"}
{"target":"Gin1 (gypsy retrotransposon integrase 1)","Tnf reporter robust z-score":0.69,"fewer than 50 cells in well":"enough cells in well"}
{"target":"Pde7a (phosphodiesterase 7A)","Tnf reporter robust z-score":-0.03,"fewer than 50 cells in well":"enough cells in well"}
{"target":"Dgcr8 (DGCR8, microprocessor complex subunit)","Tnf reporter robust z-score":"-2.09 (active)","fewer than 50 cells in well":"enough cells in well"}
{"target":"Cebpb (CCAAT/enhancer binding protein beta)","Tnf reporter robust z-score":-1.02,"fewer than 50 cells in well":"enough cells in well"}
{"target":"Ehf (ets homologous factor)","Tnf reporter robust z-score":-0.77,"fewer than 50 cells in well":"enough cells in well"}

Continued, starting with the last 2 of the part before.
{"target":"Cebpb (CCAAT/enhancer binding protein beta)","Tnf reporter robust z-score":-1.02,"fewer than 50 cells in well":"enough cells in well"}
{"target":"Ehf (ets homologous factor)","Tnf reporter robust z-score":-0.77,"fewer than 50 cells in well":"enough cells in well"}
{"target":"Aif1l (allograft inflammatory factor 1-like)","Tnf reporter robust z-score":-0.74,"fewer than 50 cells in well":"enough cells in well"}
{"target":"Xpo6 (exportin 6)","Tnf reporter robust z-score":1.77,"fewer than 50 cells in well":"enough cells in well"}
{"target":"Uggt1 (UDP-glucose glycoprotein glucosyltransferase 1)","Tnf reporter robust z-score":-1.16,"fewer than 50 cells in well":"enough cells in well"}
{"target":"Pde6b (phosphodiesterase 6B, cGMP, rod receptor, beta polypeptide)","Tnf reporter robust z-score":-0.86,"fewer than 50 cells in well":"enough cells in well"}
{"target":"Pnlip (pancreatic lipase)","Tnf reporter robust z-score":0.14,"fewer than 50 cells in well":"enough cells in well"}
{"target":"Zfp143 (zinc finger protein 143)","Tnf reporter robust z-score":0.76,"fewer than 50 cells in well":"enough cells in well"}
{"target":"Or2k2 (olfactory receptor family 2 subfamily K member 2)","Tnf reporter robust z-score":-0.65,"fewer than 50 cells in well":"enough cells in well"}
